This assay relates to HEK293A TEAD-LUC reporter. The assay can be described thus: TEAD-luciferase reporter activity (YAP activation), robust Z score vs plate; higher = stronger YAP/TEAD activation. The following applies: 24 h.

From the supplement of paper PMC10735217 come the findings set out here.

Structures can show the parent of a compound that is named as a salt. Some of the results follow. This data set is noisy: repeats of one test often differ as much as different tests do.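 In a drug-repurposing library screen, luminescence reads luciferase driven by eight TEAD-binding elements, stably integrated into human kidney-derived cells. Compounds scoring over five robust Z scores above the plate mean are called hits.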

On to `Cn1c(=O)c2c(nc(CCN3CCNCC3)n2C)n(C)c1=O`, for which the TEAD-luciferase reporter activity is inactive: 0.215 (compound concentration: 200 nM), inactive: 1.66 (compound concentration: 2 uM) and inactive: 1.91 (compound concentration: 10 uM).

As to `CCCCc1oc2ccc(C(=O)OC(C)C)cc2c1C(=O)c1ccc(CCCN(CCCC)CCCC)cc1`, the TEAD-luciferase reporter activity is, setting by setting: (compound concentration: 200 nM) inactive: -0.379; (compound concentration: 2 uM) inactive: 0.671; (compound concentration: 10 uM) inactive: 1.82.

As to `O=C(OOC(=O)c1ccccc1)c1ccccc1` [benzoyl peroxide, Advanced], the TEAD-luciferase reporter activity (compound concentration: 200 nM) was inactive: -0.571, the TEAD-luciferase reporter activity (compound concentration: 2 uM) is inactive: -1.36 and the TEAD-luciferase reporter activity (compound concentration: 10 uM) is inactive: -0.682.

Turning to `O=S(=O)([O-])O/N=C1\CCn2c(C3CCCCC3)nc3c(Cl)ccc1c32`, the TEAD-luciferase reporter activity by setting is: (compound concentration: 200 nM) inactive: -0.945; (compound concentration: 2 uM) inactive: -1.11; (compound concentration: 10 uM) inactive: -0.584.

Turning to `CCc1nc(N)nc(N)c1-c1ccc(Cl)cc1` [pyrimethamine], under “compound concentration: 2 uM”, the TEAD-luciferase reporter activity is inactive: 1.2.

In the case of `CCc1nc(N)nc(N)c1-c1ccc(Cl)cc1` [Pyrimethamine58-14-0], the TEAD-luciferase reporter activity (compound concentration: 200 nM) is inactive: 0.321 and the TEAD-luciferase reporter activity (compound concentration: 10 uM) was inactive: 0.566.

With `CC(C)C(CO)NS(=O)(=O)c1ccc(Cl)s1` (stereo not given), the TEAD-luciferase reporter activity is, setting by setting: (compound concentration: 200 nM) inactive: 0.668; (compound concentration: 2 uM) inactive: -0.776; (compound concentration: 10 uM) inactive: -0.163.

On to `Fc1ccc2c(c1)[C@H](OCc1c(F)cccc1F)[C@@H](Cn1ccnc1)S2`, for which the TEAD-luciferase reporter activity is, setting by setting: (compound concentration: 200 nM) inactive: 1.07; (compound concentration: 2 uM) inactive: 0.98; (compound concentration: 10 uM) inactive: -1.82.

With `[O]=[Bi][Cl]`, the TEAD-luciferase reporter activity is, setting by setting: (compound concentration: 200 nM) inactive: -0.354; (compound concentration: 2 uM) inactive: 3.16; (compound concentration: 10 uM) inactive: -1.31.

`O=C(NS(=O)(=O)c1ccc(Br)s1)c1ccc(Cl)cc1Cl` [Tasisulam sodium]: the TEAD-luciferase reporter activity (compound concentration: 200 nM) was inactive: -0.811, the TEAD-luciferase reporter activity (compound concentration: 2 uM) was inactive: 1.89 and the TEAD-luciferase reporter activity (compound concentration: 10 uM) is active: 12.2.

For `C#C[C@@]1(O)[C@@H](CO)O[C@@H](n2ccc(N)nc2=O)[C@@H]1O` [ethynylcytidine], the TEAD-luciferase reporter activity (compound concentration: 200 nM) was inactive: -1.29, the TEAD-luciferase reporter activity (compound concentration: 2 uM) was inactive: -2.56 and the TEAD-luciferase reporter activity (compound concentration: 10 uM) was inactive: -1.98.

`CC(C)(N)c1ccc(C(F)(F)C(F)(F)c2ccccc2)cc1`: the TEAD-luciferase reporter activity by setting is: (compound concentration: 200 nM) inactive: -1.29; (compound concentration: 2 uM) inactive: 0.0955; (compound concentration: 10 uM) inactive: 1.54.

On to `NC(=O)c1cc[n+](CC2=C(C(=O)[O-])N3C(=O)[C@@H](NC(=O)Cc4cccs4)[C@H]3SC2)cc1`, for which the TEAD-luciferase reporter activity by setting is: (compound concentration: 200 nM) inactive: -1.95; (compound concentration: 2 uM) inactive: -1.27; (compound concentration: 10 uM) inactive: -1.34.

In the case of `CN(CCCCCCN(C)C(=O)Oc1ccc[n+](C)c1)C(=O)Oc1ccc[n+](C)c1`, the TEAD-luciferase reporter activity was inactive: 1.28 (compound concentration: 200 nM), inactive: -1.63 (compound concentration: 2 uM) and inactive: 1.07 (compound concentration: 10 uM).

Turning to `Cc1nc(-c2cn3c(n2)-c2ccc(-c4cnn(C(C)(C)C(N)=O)c4)cc2OCC3)n(C(C)C)n1` [Taselisib], the TEAD-luciferase reporter activity (compound concentration: 200 nM) is inactive: 1, the TEAD-luciferase reporter activity (compound concentration: 2 uM) was inactive: -1.87 and the TEAD-luciferase reporter activity (compound concentration: 10 uM) was inactive: -0.238.

Consider `CC(C)C(=O)Oc1ccc(CO)cc1[C@H](CCN(C(C)C)C(C)C)c1ccccc1` [fesoterodine fumarate], for which the TEAD-luciferase reporter activity was inactive: -0.818 (compound concentration: 200 nM), inactive: -1.22 (compound concentration: 2 uM) and inactive: -0.255 (compound concentration: 10 uM).

On to `COc1ccc(S(=O)(=O)Nc2cc(Cl)cc(Cl)c2OC)cc1N1CCNCC1`, for which the TEAD-luciferase reporter activity (compound concentration: 200 nM) is inactive: 3.78, the TEAD-luciferase reporter activity (compound concentration: 2 uM) is inactive: -1.29 and the TEAD-luciferase reporter activity (compound concentration: 10 uM) is inactive: -0.368.

Regarding `COc1ccc2c(c1)nc(S(=O)Cc1ncc(C)c(OC)c1C)n2S(=O)(=O)c1ccc(OCC(=O)O)cc1` (stereo not given), the TEAD-luciferase reporter activity is inactive: -0.495 (compound concentration: 200 nM), inactive: -0.381 (compound concentration: 2 uM) and inactive: -0.182 (compound concentration: 10 uM).

As for `CCOc1nc(N)c2ncn(C3CCCC3)c2n1`, the TEAD-luciferase reporter activity is inactive: 0.869 (compound concentration: 200 nM), inactive: -0.679 (compound concentration: 2 uM) and inactive: 0.483 (compound concentration: 10 uM).

As for `CCc1cccc2c1S(=O)(=O)c1ccccc1O2`, the TEAD-luciferase reporter activity runs as follows: (compound concentration: 200 nM) inactive: -0.446; (compound concentration: 2 uM) inactive: -0.355; (compound concentration: 10 uM) inactive: 0.684.

As to `CC[C@@]12C=C(C(=O)OC)n3c4c(c5ccccc53)CCN(CCC1)[C@H]42` [cis-Apovincamine], the TEAD-luciferase reporter activity (compound concentration: 200 nM) is inactive: -1.81, the TEAD-luciferase reporter activity (compound concentration: 2 uM) is inactive: 1.27 and the TEAD-luciferase reporter activity (compound concentration: 10 uM) is active: 8.97.

In the case of `O=C(O)c1ccccc1Nc1cc(Cl)ccc1C(=O)O` [lobenzarit], the TEAD-luciferase reporter activity was inactive: -1.48 (compound concentration: 200 nM), inactive: -0.55 (compound concentration: 2 uM) and inactive: 0.546 (compound concentration: 10 uM).

For `CC(=O)Nc1cccc2c(=O)n(C)c3ccccc3c(=O)c12`, the TEAD-luciferase reporter activity was inactive: 3.71 (compound concentration: 200 nM), inactive: -1.24 (compound concentration: 2 uM) and inactive: -0.73 (compound concentration: 10 uM).

As to `CCC(Cc1c(I)cc(I)c(N)c1I)C(=O)O` (stereo not given), the TEAD-luciferase reporter activity reads like this: (compound concentration: 200 nM) inactive: 2.05; (compound concentration: 2 uM) inactive: 1.57; (compound concentration: 10 uM) inactive: -1.41.

`COc1ccc([C@@H]2Sc3cc(Cl)ccc3N(CCCN3CCN(c4ccccc4OC)CC3)C(=O)[C@@H]2OC(C)=O)cc1`: the TEAD-luciferase reporter activity is inactive: -1.61 (compound concentration: 200 nM), inactive: 0.908 (compound concentration: 2 uM) and inactive: 0.37 (compound concentration: 10 uM).

With `CCCCC(C)(C)[C@H](O)/C=C/[C@H]1C=CC(=O)[C@@H]1C/C=C\CCCC(=O)O`, the TEAD-luciferase reporter activity (compound concentration: 200 nM) is inactive: -0.0982, the TEAD-luciferase reporter activity (compound concentration: 2 uM) is inactive: 0.957 and the TEAD-luciferase reporter activity (compound concentration: 10 uM) was inactive: 0.544.
